Measured values reported in article PMC7979691.
Results are given in words; binding and its absence hold for the method and conditions named. Binding calls can cover weak binding; strength is not graded here.

Protein sequences, listed by entry. Tags and fused reporters are not part of them. Lines headed by an entry give the natural chain unless they say otherwise; changes in a name come on top.
UniProt I1JZ08: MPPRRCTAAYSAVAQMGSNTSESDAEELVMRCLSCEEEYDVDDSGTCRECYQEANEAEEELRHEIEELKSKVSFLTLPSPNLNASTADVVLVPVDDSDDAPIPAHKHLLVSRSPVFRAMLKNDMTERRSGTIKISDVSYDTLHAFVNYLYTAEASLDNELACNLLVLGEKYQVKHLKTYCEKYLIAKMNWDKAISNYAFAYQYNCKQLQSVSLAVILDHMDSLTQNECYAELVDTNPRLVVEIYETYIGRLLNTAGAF
UniProt A0A0R0FVG1: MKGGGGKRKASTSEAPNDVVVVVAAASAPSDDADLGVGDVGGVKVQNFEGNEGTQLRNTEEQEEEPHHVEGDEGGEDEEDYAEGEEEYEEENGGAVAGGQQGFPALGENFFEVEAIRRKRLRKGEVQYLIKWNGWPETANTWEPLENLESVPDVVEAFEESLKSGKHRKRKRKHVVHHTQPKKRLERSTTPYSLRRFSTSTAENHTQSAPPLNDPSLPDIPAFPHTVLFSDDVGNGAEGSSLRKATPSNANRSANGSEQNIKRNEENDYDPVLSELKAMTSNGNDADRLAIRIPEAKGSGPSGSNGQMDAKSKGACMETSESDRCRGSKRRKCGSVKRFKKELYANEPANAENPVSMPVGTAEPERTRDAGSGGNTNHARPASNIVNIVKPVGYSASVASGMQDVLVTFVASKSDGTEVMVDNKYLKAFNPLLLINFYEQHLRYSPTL

Target: GmBTB/POZ-GST (soybean (Glycine max)) (UniProt I1JZ08)
Assay: pull-down; His-tagged protein incubated with immobilized GST or GST-tagged protein; bound fraction detected with anti-His antibody; both purified

GmLHP1-His (from UniProt A0A0R0FVG1) was tested, and the binding was “binds”.
